Data: patent US10308899B2, “Liquid automatic dish washing detergent compositions” (Novozymes A/S, priority 2013, dated 2019)

How the values were obtained:
Format in all cases: biochemical
[1] = molecular target: T1, Protease1 (subtilisin 309) (Lederbergia lenta, UniProt P29600); assay: Storage stability of Protease1 in liquid ADW detergent (residual protease activity, N,N-dimethylcasein hydrolysis); details: Protease1 with 3.3 mg peptide aldehyde/100 g (mole ratio 2.6), Detergent A, Example 2
T1 sequence (P29600 1-269): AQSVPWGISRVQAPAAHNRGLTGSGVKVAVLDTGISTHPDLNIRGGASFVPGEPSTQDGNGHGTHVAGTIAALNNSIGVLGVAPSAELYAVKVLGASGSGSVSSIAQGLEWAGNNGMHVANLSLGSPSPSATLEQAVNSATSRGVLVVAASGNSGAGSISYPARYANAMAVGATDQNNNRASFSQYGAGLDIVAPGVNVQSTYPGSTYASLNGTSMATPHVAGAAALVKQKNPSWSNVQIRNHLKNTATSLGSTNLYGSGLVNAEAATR
From the text: (§1) Chemicals used as buffers and substrates were commercial products of at least reagent grade. Protease1, Protease2, Protease3, and Protease4, as used in the examples below, are subtilisin proteases. Protease1 has the amino acid sequence shown in SEQ ID NO: 1 (subtilisin 309). Protease2 has the amino acid sequence shown in SEQ ID NO: 2 (variant of subtilisin 309). Protease3 has the amino acid sequence shown in SEQ ID NO: 3 (variant of subtilisin 309). Protease4 has the amino acid sequence shown in SEQ ID NO: 4 (subtilisin BPN′).
Various peptide aldehydes were produced, all with a purity >80%. The peptide aldehydes were dissolved in DMSO to a concentration of 10 mg/ml before use.
(§2) To detergent A from Example 1, the following amount of enzyme and different inhibitors (peptide aldehydes) were added, all samples normalized to 100 g of detergent. Inhibitor amount in mg is given as the pure component (added from the 10 mg/mL solution). Three subtilisin proteases were used: Protease1, Protease2, and Protease4, all in concentration of 0.04 g active enzyme protein per gram of enzyme solution.
(§3) The detergents were placed in closed glasses at 37° C. for 2 weeks. Residual activity of protease was measured (by comparison to a reference stored at −18° C.) using standard enzyme analytical method (protease activity measured by hydrolysis of N,N-dimethylcasein at 40° C., pH=8.3).

[2] = molecular target: Protease3 (variant of subtilisin 309) (Lederbergia lenta, UniProt P29600, INS97E); assay: Storage stability of Protease3 in liquid ADW detergent (residual protease activity, N,N-dimethylcasein hydrolysis); details: Protease3 with inhibitor 3.4 mg/100 g (mole ratio 2.1), vs reference stored at −18° C.
From the text: as §1
(§4) The peptide aldehyde hydrosulfite adduct described above was dissolved in 40% propylene glycol and water was added to make a 24% w/w solution of the adduct. Three different model liquid dishwashing detergents were prepared for testing the peptide aldehyde derived inhibitor representing three different levels of strong sequestering builder.
(§5) [formula] To the detergent bases, the following amount of enzyme and inhibitor (peptide aldehyde hydrosulfite adduct described above) were added, all samples normalized to 100 g of detergent. Inhibitor amount in mg is given as the pure component (added from the 24% solution). Protease2 and Protease3 were used in concentrations of 0.04 g active enzyme protein per gram of enzyme solution. The mole ratio expresses the molar ratio of the inhibitor relative to the enzyme.
as §3

[3] = molecular target: Protease2 (variant of subtilisin 309) (Lederbergia lenta, UniProt P29600, DUP96-96/S97D); assay: Storage stability of Protease2 in liquid ADW detergent (residual protease activity, N,N-dimethylcasein hydrolysis); details: Protease2 with inhibitor 3.4 mg/100 g (mole ratio 2.1), Example 1
From the text: as §1, §4, §5, §3, §2

Substance | Residual protease activity after two weeks at 37° C. [1] [%] | Residual protease activity after two weeks at 37° C. ([2]; Detergent A (invention)) [%] | Residual protease activity after two weeks at 37° C. ([2]; Detergent B (invention)) [%] | Residual protease activity after two weeks at 37° C. ([2]; Detergent C (reference)) [%] | Residual protease activity after two weeks at 37° C. ([3]; Detergent A (invention)) [%] | Residual protease activity after two weeks at 37° C. ([3]; Detergent B (invention)) [%] | Residual protease activity after two weeks at 37° C. ([3]; Detergent C (reference)) [%]
Cbz-Gly-Ala-Tyr-H (GAY; N-terminal benzyloxycarbonyl (Cbz); C-terminal aldehyde (-H) on Tyr) [peptide aldehyde, Cbz is benzyloxycarbonyl] | 81 | – | – | – | – | – | –
inhibitor: XB^1—NH—CHR—CHOH—SO3Na, X=Cbz-Gly; B^1=Ala; R=—CH2-p(C6H4)—OH; the hydrosulfite adduct of Cbz-Gly-Ala-Tyr-H (GAY; N-terminal benzyloxycarbonyl (Cbz); C-terminal Tyr as hydrosulfite adduct of the aldehyde (-NH-CHR-CHOH-SO3Na)) | – | ≥100 | 92 | 85 | 90 | ≥100 | ≥100
